{"source": "PubChem BioAssay AID1259308 | NCATS – 2017", "screen": "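Knock-downs that increase output of a recombinant reporter protein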 (primary screen)", "cell system": "human HEK293 embryonic kidney cells stably expressing firefly luciferase (HEK-CMV-Luc2-Hygro)", "reagent": "single siRNA against human genes, 0.8 pmol siRNA per well", "timing": "72 h", "read-out": "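Luciferase light (ONE-Glo) measured on one replicate plate set and viability (CellTiter-Glo) on the other, scaled to a negative control siRNA, with robust z-scores and luciferase per cell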", "scale": "total luciferase, z-score: higher = more reporter protein produced", "rule for the call": "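An siRNA counts as active if its total luciferase robust z-score exceeds 3; genes with two or more such siRNAs out of three were retested with fresh siRNAs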", "meaning of the calls": "active = raised luciferase; inactive = no rise", "note": "The deposit covers about 59,000 reagents; shown is an unselected part. Of all reagents, about 1,510 (2.6%) are marked active. 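Calls use total luciferase alone and ignore viability, so some active siRNAs may act by altering cell number.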 Reagents against one gene are numbered here. Further read-outs or replicates are left out here. No sequences are given here."}
{"Target gene":"LINC01547 (GeneID 84536)","reagent":1,"total luciferase, z-score":-0.287,"activity call":"inactive"}
{"Target gene":"LINC01547 (GeneID 84536)","reagent":2,"total luciferase, z-score":-0.981,"activity call":"inactive"}
{"Target gene":"LINC01547 (GeneID 84536)","reagent":3,"total luciferase, z-score":0.0388,"activity call":"inactive"}
{"Target gene":"LINC01547 (GeneID 84536)","reagent":4,"total luciferase, z-score":0.58,"activity call":"inactive"}
{"Target gene":"LINC01547 (GeneID 84536)","reagent":5,"total luciferase, z-score":0.607,"activity call":"inactive"}
{"Target gene":"LINC01547 (GeneID 84536)","reagent":6,"total luciferase, z-score":0.442,"activity call":"inactive"}
{"Target gene":"XPNPEP3 (GeneID 63929)","reagent":1,"total luciferase, z-score":-2.41,"activity call":"inactive"}
{"Target gene":"XPNPEP3 (GeneID 63929)","reagent":2,"total luciferase, z-score":-0.711,"activity call":"inactive"}
{"Target gene":"XPNPEP3 (GeneID 63929)","reagent":3,"total luciferase, z-score":-0.859,"activity call":"inactive"}
{"Target gene":"KCNC2 (GeneID 3747)","reagent":1,"total luciferase, z-score":-1.3,"activity call":"inactive"}
{"Target gene":"KCNC2 (GeneID 3747)","reagent":2,"total luciferase, z-score":-0.722,"activity call":"inactive"}
{"Target gene":"KCNC2 (GeneID 3747)","reagent":3,"total luciferase, z-score":-2.39,"activity call":"inactive"}

2 of these entries in another layout.
Target gene | reagent | total luciferase, z-score | activity call
XPNPEP3 (GeneID 63929) | 3 | -0.859 | inactive
KCNC2 (GeneID 3747) | 1 | -1.3 | inactive
